# Measurements reported in PubChem BioAssay AID1259405 (NCATS, 2018)
# Aim: 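Silenced genes that increase secreted GFP made by CHO cells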 (primary screen)
# Cell system: Chinese hamster CHO-K1 ovary cells with stable secreted eGFP expression
# Knock-down reagent: single siRNA against mouse genes, 0.8 pmol siRNA per well (2 µl of 400 nM stock)
# Duration: 3 days
# Read-out: 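Per-well intracellular GFP measured by laser scanning cytometry, plus viability from ATP luminescence, each relative to plate median of non-targeting control wells, in %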
# Direction: GFP, % of control: higher = more GFP per well, higher productivity; viability (ATP), % of control: higher = more viable cells (more ATP)
# Call rule: 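a knock-down is called active if GFP reaches 120% or more of non-targeting control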
# In all, the deposit lists about 50,000 reagents; below is a random part of them. About 4,000 of all reagents (8%) count as active. 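Mouse siRNA library applied to hamster cells; one well for each siRNA.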 Reagents against one gene are numbered here.
gene,reagent no.,"GFP, % of control","viability (ATP), % of control",call
Vsir,1,66,61,inactive
Vsir,2,59.1,65.7,inactive
Vsir,3,79.2,89.5,inactive
Or2ag13,1,75.5,53.1,inactive
Or2ag13,2,102,73.3,inactive
Or2ag13,3,107,102,inactive
Samt4,1,80.4,120,inactive
Samt4,2,141,125,active
Samt4,3,69.1,51.5,inactive
Rdh14,1,214,78.6,active
Rdh14,2,42.6,51.3,inactive
Rdh14,3,87.1,106,inactive
Tars3,1,117,113,inactive
Tars3,2,42.6,42.4,inactive
Tars3,3,71.3,66.1,inactive
Tm9sf4,1,61.7,64.9,inactive
Tm9sf4,2,104,83.5,inactive
Tm9sf4,3,85.7,73.8,inactive
Smim10l2a,1,40.1,58.8,inactive
Smim10l2a,2,57.7,79.6,inactive
Smim10l2a,3,38.9,66.1,inactive

The list goes on; the last 6 above are carried over.
gene,reagent no.,"GFP, % of control","viability (ATP), % of control",call
Tm9sf4,1,61.7,64.9,inactive
Tm9sf4,2,104,83.5,inactive
Tm9sf4,3,85.7,73.8,inactive
Smim10l2a,1,40.1,58.8,inactive
Smim10l2a,2,57.7,79.6,inactive
Smim10l2a,3,38.9,66.1,inactive
Cenpb,1,67.4,75.2,inactive
Cenpb,2,68.7,45,inactive
Cenpb,3,86.2,81,inactive
Rps6kb2,1,97.1,57.6,inactive
Rps6kb2,2,103,74.4,inactive
Rps6kb2,3,109,72.9,inactive
Pcdhga8,1,91.7,72.5,inactive
Pcdhga8,2,51.2,58,inactive
Pcdhga8,3,59.6,72.8,inactive
Klk1b21,1,132,133,active
Klk1b21,2,66.4,65.8,inactive
Klk1b21,3,73,76.7,inactive
Ssna1,1,39,42.1,inactive
Ssna1,2,118,114,inactive
Ssna1,3,119,94.7,inactive
Hpca,1,84.1,92.5,inactive
Hpca,2,71.8,83,inactive
Mon1b,1,73,89.3,inactive
Mon1b,2,116,114,inactive
Mon1b,3,68.7,89,inactive
Phf21a,1,99.7,93.1,inactive
Phf21a,2,82,44.6,inactive
Phf21a,3,153,76.3,active
Atat1,1,73.8,56.8,inactive
Atat1,2,73.3,38.6,inactive
Atat1,3,89.4,81,inactive
Exoc3l2,1,70.3,83.8,inactive
Exoc3l2,2,101,113,inactive
Exoc3l2,3,118,136,inactive
Lzic,1,95.2,58.1,inactive
Lzic,2,87,54.3,inactive
Lzic,3,82.5,49.1,inactive
Ms4a19,1,82.1,77.1,inactive
Ms4a19,2,82.9,85.3,inactive
Ms4a19,3,65,73.4,inactive
Hspa12b,1,68.8,79.5,inactive
Hspa12b,2,94.7,66.5,inactive
Hspa12b,3,119,87.7,inactive
